Experimental findings from the supplement of paper PMC3334620 are described below.

In all, about 33,000 sequences were measured (“E-score (-0.5 to 0.5)”: median about -0.0059, highest 2% from about 0.26 on). The list shows a part of the results.

This test addresses T1, Cin5 (UniProt P40917).
T1 sequence: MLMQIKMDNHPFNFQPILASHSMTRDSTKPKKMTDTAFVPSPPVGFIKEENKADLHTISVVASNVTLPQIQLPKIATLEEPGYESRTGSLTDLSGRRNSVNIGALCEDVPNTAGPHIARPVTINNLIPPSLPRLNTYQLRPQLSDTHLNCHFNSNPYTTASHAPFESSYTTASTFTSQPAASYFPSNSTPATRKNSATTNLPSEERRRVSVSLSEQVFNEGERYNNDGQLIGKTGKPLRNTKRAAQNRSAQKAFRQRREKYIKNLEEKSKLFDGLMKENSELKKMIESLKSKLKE
Nature of the test: PBM E-score (8-mer binding enrichment) (E-score (-0.5 to 0.5)); higher = stronger / more preferred TF binding. Conditions: protein concentration: 100 nM; construct: GST-full length. An outline of the steps:
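Bound GST-tagged yeast transcription factors, applied at about 100-200 nM to double-stranded universal all-10-mer Agilent arrays, were detected with fluorescent anti-GST. Scans were normalised with masliner. A modified Wilcoxon-Mann-Whitney statistic, the E-score, was assigned to each ungapped eight-base word pooled with its reverse complement by the Universal PBM Analysis Suite.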
Consider GGTCGCAA, for which the “PBM E-score” value is -0.0356.
As for CCATCACC, the figure is 0.0838; as for CCAAGGCA, -0.115; as for ACCGTGTC, -0.15.
Turning to GACCCAAC, the “PBM E-score” value is -0.0281.
As for ACACTTCC, the figure is 0.00972.
As for AATGTCGC, the figure is 0.0785; as for CTCCGGCA, -0.0384.
Then GGGTCGAC, with -0.075; and CAGCGTAC, with -0.141; and CTCCTTTC, with -0.12.
As for AAGCTTTA, the “PBM E-score” value is -0.0115.
Consider ACTGTAGA, for which the “PBM E-score” value was determined as 0.136.
Turning to CGGGGTAC, the “PBM E-score” value was -0.164.
Regarding CAGGTCGC, the “PBM E-score” value is -0.113.
On to TCAAATAA, for which the “PBM E-score” value stood at 0.047.
In the case of ATTTCTCA, the “PBM E-score” value turned out to be 0.0803.
As for AGGGTATA, the figure is 0.142; as for ATGGGTTC, -0.132.
For the sequence GACAGATC, the “PBM E-score” value stood at 0.109.
ACAAAACC: the “PBM E-score” value stood at 0.228.
As for AACTCCCT, the figure is -0.142; as for CATTTATC, 0.0882; as for ACCTCGGG, -0.158.
As to GAGGGTAA, the “PBM E-score” value was -0.0367.
Then ACGATTCT, with 0.14; and GTTTTATA, with 0.148; and ACTCAATG, with 0.101.
Then ACTCCGAG, with 0.0431; and CTGCTCTC, with -0.109; and GCATCTAC, with 0.12.
Then GACGACCC, with -0.136; and CGCCGTAC, with -0.141.
Consider CAGCTTTC, for which the “PBM E-score” value was -0.0153.
For the sequence GCGGGGCA, the “PBM E-score” value was -0.0914.
As to AACAGAAG, the “PBM E-score” value is -0.0414.
Then GACTCAGC, with 0.0183; and ACTCAGTA, with 0.204; and CAACGCCG, with -0.0628.
Take CCACAAGC: the “PBM E-score” value is -0.23.
As for CCGTGTAA, the figure is -0.059; as for AAGGCACC, -0.0903.
Turning to CTACTCAA, the “PBM E-score” value was 0.106.
Then ACGTGTCA, with -0.00138; and GCGGTGAC, with -0.129; and TAAGGCCA, with -0.119.
Regarding CTACGCGC, the “PBM E-score” value was determined as 0.00209.
On to GCGATTGA, for which the “PBM E-score” value was -0.0807.
Then ACAGTTCT, with 0.0817; and CGAGCAAG, with -0.111.
Then TCTGCGAA, with -0.224; and AAGCTATG, with -0.085.
Take GCACAACA: the “PBM E-score” value amounted to 0.0626.
With TCGCTCCA, the “PBM E-score” value was -0.181.
As to ACCACTGC, the “PBM E-score” value is -0.0496.
In the case of AGGACGCA, the “PBM E-score” value is 0.0285.
For CCCCGCGG, the “PBM E-score” value was -0.0531.
As to GGTCGCTA, the “PBM E-score” value is -0.112.
For the sequence GGTTTATA, the “PBM E-score” value is -0.00975.
Turning to GATCGTCA, the “PBM E-score” value is -0.0267.
Take AAGAGCAG: the “PBM E-score” value is -0.139.
Then ACTCGGAT, with 0.109; and CGCACGAA, with -0.00612; and CAAGTCGA, with -0.0845.
In the case of AGCCCGAA, the “PBM E-score” value was -0.147.
As for GACTTCAA, the figure is -0.0601; as for ACTTGGTG, -0.0186; as for ACAGCGTG, -0.0933.
In the case of CCGGTGTC, the “PBM E-score” value was -0.189.
Regarding AGAGAACT, the “PBM E-score” value is -0.132.
As for CAATTAGA, the figure is 0.193; as for CACGTGAC, -0.0993.
As for AATAATCA, the figure is 0.257; as for CCATCGGC, -0.139.
Then CTCTTCAC, with -0.0426; and GCTTTTGA, with -0.136; and CATCATGG, with 0.154.
As to CCGCGATA, the “PBM E-score” value is 0.107.
As for CATTTTAA, the figure is 0.0885; as for AGCTCCAG, -0.203; as for GCACGAGA, -0.0641.
On to GCCGGTTA, for which the “PBM E-score” value was -0.0397.
Then AGAGCACA, with 0.0787; and TACGACCA, with -0.139.
As for ACCTATAT, the figure is 0.269; as for CCGGTAGA, -0.0367; as for AATCGCTC, -0.00659.
On to GAAGTATC, for which the “PBM E-score” value is 0.0945.
As to ACTGGGAA, the “PBM E-score” value turned out to be 0.17.
As for ACGTGAGT, the figure is -0.00685; as for AAGTTATG, 0.25.
Turning to ATCTACGA, the “PBM E-score” value is -0.164.
Then CAACCAGG, with -0.168.
As for CTTAAGTA, the figure is 0.12; as for CCAATTCA, 0.243.
For the sequence GGTAAATA, the “PBM E-score” value stood at 0.0538.
As for CCTGTACA, the figure is -0.114; as for ACGGAGGG, -0.00228; as for AGCATGGC, -0.129.
CATGTGCA: the “PBM E-score” value was -0.185.
As for AGTTACCA, the figure is 0.0365.
Then CGCAAGAC, with -0.154; and AGGAGACG, with -0.228.
For the sequence GCGGGATA, the “PBM E-score” value was 0.0615.
Regarding CCACACAG, the “PBM E-score” value amounted to 0.00178.
Then ATACATAA, with 0.286; and GCCATATA, with 0.0878; and GCTCTGGA, with 0.0948.
Turning to AGCTCCCT, the “PBM E-score” value was -0.245.
As for AGCGATCC, the “PBM E-score” value was -0.0288.
